Values from PubChem BioAssay AID1508597 (Cure First, 2020)
Screen: 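Genes whose silencing sensitises or protects ovarian cancer cells against rucaparib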 (primary screen). System: human ovarian carcinoma lines grown from tumours: OCI-P5x (papillary serous) and OCI-C5x (clear cell). Reagents: siRNA pool against human genes, 1.25 pmol siRNA per well. Time to read-out: 72 h or 96 h, depending on the cell culture. Treatment: rucaparib 20 µM (about IC30) or vehicle, present until read-out. Measured: 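ATP luminescence measured at 72 or 96 h according to the culture, then normalised and expressed as percent viability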. Scale: viability, normalised: higher = more viable cells remaining. Call rule: 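a well counts as a hit if its normalised viability is under 80 percent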. Meaning of the calls: active = viability under 80%; inactive = viability 80% or more.
The whole screen tested about 2,100 reagents; below is an unselected part. 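Calls flag viability under 80% in either arm, not effects specific to rucaparib; the reference for percent is not stated.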 Entries without a mark were called inactive. No sequences are given here. The record does not give: the 100% reference.

How did the screen score COPRS, rucaparib or vehicle Rucaparib, cell line OCI-C5x (clear cell), technical replicate 1?
viability, normalised (%): 59.2 (active)

What is on record for COPRS, rucaparib or vehicle Rucaparib, cell line OCI-C5x (clear cell), technical replicate 2?
viability, normalised (%): 53.8 (active)

How did the screen score COPRS, rucaparib or vehicle Rucaparib, cell line OCI-C5x (clear cell), technical replicate 3?
viability, normalised (%): 72.1 (active)

How did the screen score COPRS, rucaparib or vehicle Rucaparib, cell line OCI-P5x (serous), technical replicate 1?
viability, normalised (%): 78.5 (active)

For COPRS, rucaparib or vehicle Rucaparib, cell line OCI-P5x (serous), technical replicate 2, how do the results read?
viability, normalised (%): 81.8

Which result is listed for COPRS, rucaparib or vehicle Rucaparib, cell line OCI-P5x (serous), technical replicate 3?
viability, normalised (%): 59.4 (active)

For COPRS, rucaparib or vehicle Vehicle, cell line OCI-C5x (clear cell), technical replicate 1, how do the results read?
viability, normalised (%): 39.9 (active)

With COPRS, rucaparib or vehicle Vehicle, cell line OCI-C5x (clear cell), technical replicate 2, what was measured?
viability, normalised (%): 74.7 (active)

With COPRS, rucaparib or vehicle Vehicle, cell line OCI-C5x (clear cell), technical replicate 3, what was measured?
viability, normalised (%): 37.5 (active)

How did the screen score COPRS, rucaparib or vehicle Vehicle, cell line OCI-P5x (serous), technical replicate 1?
viability, normalised (%): 62.5 (active)

What is on record for COPRS, rucaparib or vehicle Vehicle, cell line OCI-P5x (serous), technical replicate 2?
viability, normalised (%): 93.7

For COPRS, rucaparib or vehicle Vehicle, cell line OCI-P5x (serous), technical replicate 3, what was measured?
viability, normalised (%): 132

Which result is listed for MAGI2, rucaparib or vehicle Rucaparib, cell line OCI-C5x (clear cell), technical replicate 1?
viability, normalised (%): 35.2 (active)

How did the screen score MAGI2, rucaparib or vehicle Rucaparib, cell line OCI-C5x (clear cell), technical replicate 2?
viability, normalised (%): 41.9 (active)

For MAGI2, rucaparib or vehicle Rucaparib, cell line OCI-C5x (clear cell), technical replicate 3, how do the results read?
viability, normalised (%): 42.4 (active)

What is on record for MAGI2, rucaparib or vehicle Rucaparib, cell line OCI-P5x (serous), technical replicate 1?
viability, normalised (%): 45.2 (active)

For MAGI2, rucaparib or vehicle Rucaparib, cell line OCI-P5x (serous), technical replicate 2, how do the results read?
viability, normalised (%): 70.3 (active)

For MAGI2, rucaparib or vehicle Rucaparib, cell line OCI-P5x (serous), technical replicate 3, what was measured?
viability, normalised (%): 71.2 (active)

With MAGI2, rucaparib or vehicle Vehicle, cell line OCI-C5x (clear cell), technical replicate 1, how do the results read?
viability, normalised (%): 54 (active)

What did the screen give for MAGI2, rucaparib or vehicle Vehicle, cell line OCI-C5x (clear cell), technical replicate 2?
viability, normalised (%): 50.9 (active)

With MAGI2, rucaparib or vehicle Vehicle, cell line OCI-C5x (clear cell), technical replicate 3, how do the results read?
viability, normalised (%): 37.3 (active)

For MAGI2, rucaparib or vehicle Vehicle, cell line OCI-P5x (serous), technical replicate 1, what was measured?
viability, normalised (%): 80.1

With MAGI2, rucaparib or vehicle Vehicle, cell line OCI-P5x (serous), technical replicate 2, what does the deposit list?
viability, normalised (%): 53.8 (active)

For MAGI2, rucaparib or vehicle Vehicle, cell line OCI-P5x (serous), technical replicate 3, what does the deposit list?
viability, normalised (%): 62.6 (active)

For EIF2AK3, rucaparib or vehicle Rucaparib, cell line OCI-C5x (clear cell), technical replicate 1, how do the results read?
viability, normalised (%): 64.3 (active)

For EIF2AK3, rucaparib or vehicle Rucaparib, cell line OCI-C5x (clear cell), technical replicate 2, what does the deposit list?
viability, normalised (%): 47 (active)

With EIF2AK3, rucaparib or vehicle Rucaparib, cell line OCI-C5x (clear cell), technical replicate 3, what does the deposit list?
viability, normalised (%): 67.7 (active)

What did the screen give for EIF2AK3, rucaparib or vehicle Rucaparib, cell line OCI-P5x (serous), technical replicate 1?
viability, normalised (%): 75 (active)

For EIF2AK3, rucaparib or vehicle Rucaparib, cell line OCI-P5x (serous), technical replicate 2, what was measured?
viability, normalised (%): 79.9 (active)

What did the screen give for EIF2AK3, rucaparib or vehicle Rucaparib, cell line OCI-P5x (serous), technical replicate 3?
viability, normalised (%): 60.1 (active)

For EIF2AK3, rucaparib or vehicle Vehicle, cell line OCI-C5x (clear cell), technical replicate 1, what was measured?
viability, normalised (%): 55.5 (active)

With EIF2AK3, rucaparib or vehicle Vehicle, cell line OCI-C5x (clear cell), technical replicate 2, what does the deposit list?
viability, normalised (%): 50.5 (active)

For EIF2AK3, rucaparib or vehicle Vehicle, cell line OCI-C5x (clear cell), technical replicate 3, how do the results read?
viability, normalised (%): 60 (active)

How did the screen score EIF2AK3, rucaparib or vehicle Vehicle, cell line OCI-P5x (serous), technical replicate 1?
viability, normalised (%): 74.1 (active)

For EIF2AK3, rucaparib or vehicle Vehicle, cell line OCI-P5x (serous), technical replicate 2, what was measured?
viability, normalised (%): 64.3 (active)

For EIF2AK3, rucaparib or vehicle Vehicle, cell line OCI-P5x (serous), technical replicate 3, what does the deposit list?
viability, normalised (%): 72.2 (active)

Which result is listed for MED17, rucaparib or vehicle Rucaparib, cell line OCI-C5x (clear cell), technical replicate 1?
viability, normalised (%): 19.3 (active)

With MED17, rucaparib or vehicle Rucaparib, cell line OCI-C5x (clear cell), technical replicate 2, what does the deposit list?
viability, normalised (%): 23 (active)

Which result is listed for MED17, rucaparib or vehicle Rucaparib, cell line OCI-C5x (clear cell), technical replicate 3?
viability, normalised (%): 17.6 (active)

With MED17, rucaparib or vehicle Rucaparib, cell line OCI-P5x (serous), technical replicate 1, what does the deposit list?
viability, normalised (%): 44 (active)

For MED17, rucaparib or vehicle Rucaparib, cell line OCI-P5x (serous), technical replicate 2, what does the deposit list?
viability, normalised (%): 40.1 (active)

Which result is listed for MED17, rucaparib or vehicle Rucaparib, cell line OCI-P5x (serous), technical replicate 3?
viability, normalised (%): 47.4 (active)

For MED17, rucaparib or vehicle Vehicle, cell line OCI-C5x (clear cell), technical replicate 1, what was measured?
viability, normalised (%): 21.2 (active)

How did the screen score MED17, rucaparib or vehicle Vehicle, cell line OCI-C5x (clear cell), technical replicate 2?
viability, normalised (%): 29.1 (active)

With MED17, rucaparib or vehicle Vehicle, cell line OCI-C5x (clear cell), technical replicate 3, how do the results read?
viability, normalised (%): 28.6 (active)

What is on record for MED17, rucaparib or vehicle Vehicle, cell line OCI-P5x (serous), technical replicate 1?
viability, normalised (%): 42.7 (active)

With MED17, rucaparib or vehicle Vehicle, cell line OCI-P5x (serous), technical replicate 2, what was measured?
viability, normalised (%): 60.6 (active)

What did the screen give for MED17, rucaparib or vehicle Vehicle, cell line OCI-P5x (serous), technical replicate 3?
viability, normalised (%): 50.3 (active)

7 of these entries, set out differently.
COPRS, rucaparib or vehicle Vehicle, cell line OCI-P5x (serous), technical replicate 1
- viability, normalised (%): 62.5 (active)

COPRS, rucaparib or vehicle Vehicle, cell line OCI-P5x (serous), technical replicate 2
- viability, normalised (%): 93.7

COPRS, rucaparib or vehicle Vehicle, cell line OCI-P5x (serous), technical replicate 3
- viability, normalised (%): 132

MAGI2, rucaparib or vehicle Rucaparib, cell line OCI-C5x (clear cell), technical replicate 1
- viability, normalised (%): 35.2 (active)

MAGI2, rucaparib or vehicle Rucaparib, cell line OCI-C5x (clear cell), technical replicate 2
- viability, normalised (%): 41.9 (active)

MAGI2, rucaparib or vehicle Rucaparib, cell line OCI-C5x (clear cell), technical replicate 3
- viability, normalised (%): 42.4 (active)

MAGI2, rucaparib or vehicle Rucaparib, cell line OCI-P5x (serous), technical replicate 1
- viability, normalised (%): 45.2 (active)
